No constants are given. Whether binding was seen depends on the method and setting. In cells and extracts the contact can be indirect. Some binding calls cover weakened binding; strength is not graded here.
Biological target: T1, Sirtuin 2 (human (endogenous in MRC-5)) (UniProt Q8IXJ6)
T1 sequence: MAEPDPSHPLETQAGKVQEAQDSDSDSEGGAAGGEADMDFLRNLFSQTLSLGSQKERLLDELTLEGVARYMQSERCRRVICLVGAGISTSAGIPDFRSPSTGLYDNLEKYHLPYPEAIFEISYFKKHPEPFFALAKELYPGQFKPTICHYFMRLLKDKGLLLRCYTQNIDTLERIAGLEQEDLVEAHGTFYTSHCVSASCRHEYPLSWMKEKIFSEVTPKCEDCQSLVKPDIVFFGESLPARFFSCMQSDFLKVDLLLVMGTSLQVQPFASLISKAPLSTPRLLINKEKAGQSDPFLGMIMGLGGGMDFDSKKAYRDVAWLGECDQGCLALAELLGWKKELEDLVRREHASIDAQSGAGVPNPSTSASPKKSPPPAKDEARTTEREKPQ
Experiment: co-IP; lysate (400 μg total protein, hypotonic lysis buffer) of MRC-5 cells treated with TGF-β1 at 2 and 5 ng/ml for 24 h; precipitated with rabbit anti-Sirt2 or rabbit IgG on protein A/G beads; immunoblotted with Smad3 antibody

Protein sequences, listed by entry. Tags and fused reporters are not part of them.
UniProt P84022: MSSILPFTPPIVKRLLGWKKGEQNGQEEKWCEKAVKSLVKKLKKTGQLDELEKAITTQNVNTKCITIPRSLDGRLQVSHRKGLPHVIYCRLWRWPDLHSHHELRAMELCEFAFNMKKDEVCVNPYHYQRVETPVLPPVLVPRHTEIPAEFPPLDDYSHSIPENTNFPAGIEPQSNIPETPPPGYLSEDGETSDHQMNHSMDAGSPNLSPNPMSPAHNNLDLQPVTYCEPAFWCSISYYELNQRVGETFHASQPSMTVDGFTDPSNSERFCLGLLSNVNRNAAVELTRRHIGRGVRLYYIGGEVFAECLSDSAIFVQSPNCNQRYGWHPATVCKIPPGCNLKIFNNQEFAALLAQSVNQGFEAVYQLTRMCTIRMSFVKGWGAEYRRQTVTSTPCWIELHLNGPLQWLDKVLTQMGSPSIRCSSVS

binding: binds
Substance: Smad3 (from UniProt P84022 1-425)

Source: article PMC8672210
